Results published in patent US8008452B2, “Phosphorylated Ndr kinase” (Novartis Forschungesstiftung, Zweigniederlassung Friedrich …, priority 2002, dated 2011).
Some of these results come from one statement about several compounds together.

System: NDR
Test: OA stimulated kinase activity of NDR N-terminal domain mutants
Assay type: cell-based, human
Details: residue mutated to alanine

With “T74A: NDR1 alanine mutant of phosphorylation residue Thr74; GST fusion or HA-tagged” the “OA stimulated kinase activity of NDR mutant relative to wild type” value was no more than 20%.
